# Experimental data as given in PubChem BioAssay AID504444 (National Center for Advancing Translational Sciences (NCATS), 2011).
# Screen size: about 360,000 compounds; about 7,500 (2.1%) were called active. This list was built around the results that the source calls inconclusive (neither active nor inactive); the mix of calls is not that of the screen. Calls come from the whole dose curve; as a rule, active = well fitted inhibition curve with a large enough effect; inconclusive = small, poorly fitted or top-dose-only effect, or effect the other way; inactive = flat fitted curve, though single readings scatter. A potency beside an inconclusive call is a rough fit, not a confirmed value.
# Experiment: Nrf2 qHTS screen for inhibitors; note: nearly all actives have a fitted effect of over 60% in size
# Conditions: A549 ARE-Fluc reporter, luciferase luminescence, 18-24 h; activity change, negative = inhibition: at 46 µM (top of the series)
# In short: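 In this cell-based qHTS, ARE-driven firefly luciferase in A549 cells reports Nrf2 activity; the luminescent signal after BugLite lysis is the measured value, with a prior CellTiter-Fluor read for cell health.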
# % is set by controls: 0 for no effect and ±100 for the full control effect; potency is the fitted concentration of half-maximal effect.
SMILES,Potency,"activity change, negative = inhibition"
COc1cc(/C=N/N=C(\N)c2nonc2N)cc(OC)c1OC,"inconclusive: 0.92 µM [activator, full curve, poor fit]",
Cc1cccc(CCn2c(=O)c3ccccc3n(CC(=O)Nc3ccccc3F)c2=O)c1,,inactive: -6.63%
O=C(COc1ccc(S(=O)(=O)N2CCCCC2)cc1)NCc1cccnc1,"inconclusive: 5.8 µM [falling, partial curve]",
O=C(Nc1ccccc1N1CCCC1)C1CCN(C(=O)c2ccc(F)cc2)CC1,"inconclusive: 18.4 µM [activator, partial curve, poor fit]",
C[C@H](CO)N1C[C@H](C)[C@H](CN(C)Cc2ccc(-c3ccccc3)cc2)Oc2ccc(NS(=O)(=O)c3ccccc3)cc2CC1=O,"inconclusive: 25.9 µM [falling, single point]",
CCOc1ccccc1N1CC(C(=O)Nc2ccc(S(=O)(=O)N3CCCCC3)cc2)CC1=O (configuration not stated),"inconclusive: 9.2 µM [falling, partial curve, poor fit]",
O=S(=O)(Nc1cccc2cccnc12)c1ccc2ccccc2c1,active: 5.17 µM,
Cc1ccc(C)c(N2CCN(CCCNC(=O)c3cnn(-c4ccccc4)c3C3CCN(C(=O)OC(C)(C)C)CC3)CC2)c1,active: 18.4 µM,
COc1ccc(-c2nc(-c3cccs3)no2)cc1,"inconclusive: 25.9 µM [activator, partial curve, poor fit]",
Cc1ccc2c(CN(C)Cc3ccccc3)cc(=O)oc2c1C,"inconclusive: 16.4 µM [activator, partial curve]",
CCCc1nc(NC(=O)c2ccccc2)nc(NC(=O)c2ccccc2)n1,"inconclusive: 23.1 µM [falling, partial curve, poor fit]",
COc1cccc2c1C(CO)N1C(C#N)C3CC(C(=O)O)C(C1C2)N3C (configuration not stated),"inconclusive: 4.61 µM [falling, full curve, poor fit]",
CCn1c(=O)c(C(=O)Nc2ccccc2S(N)(=O)=O)c(O)c2ccccc21,"inconclusive: 32.6 µM [falling, single point]",
CCCc1cc(-c2n[nH]c(C(=O)OCC)c2-c2cscn2)c(O)cc1O,active: 29.1 µM,
CS(=O)(=O)N1CCc2cc(-c3csc(NC(=O)C(c4ccccc4)c4ccccc4)n3)ccc21,,inactive: -18.6%
O=C(NCc1ccccc1Cl)c1c2c(nc3ccccc13)C(=O)N(C1CCCCC1)C2,"inconclusive: 20.6 µM [falling, partial curve, poor fit]",
COc1cc(C(=O)N2CCN(c3cc(Cl)ccc3Cl)CC2)cc(OC)c1OC,,inactive: -5.81%

# Complete entries, quoted from the list.
# CCCc1nc(NC(=O)c2ccccc2)nc(NC(=O)c2ccccc2)n1 reads Potency: inconclusive: 23.1 µM [falling, partial curve, poor fit]
# O=S(=O)(Nc1cccc2cccnc12)c1ccc2ccccc2c1 reads Potency: active: 5.17 µM
